In PubChem BioAssay AID2685 (National Center for Advancing Translational Sciences (NCATS), 2010) one finds cell number change and AC50 data, which are given here for 59 compounds.

The nature of the test: qHTS Assay for Lipid Storage Modulators in Drosophila S3 Cells.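 On cell number change: cells counted by Cell Tracker Red CMTPX staining in the red channel.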 To be noted: BODIPY lipid droplet fluorescence, 18-24 h; for cell number change: measured here: cell count max response, cells fed with added oleic acid. The gist of the method:
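Drosophila S3 cells loaded with oleic acid (400 uM, as added) and compounds at several concentrations; lipid droplets imaged by 488-nm laser-scanning cytometry, 500–530 nm intensity and object ratio to cell channel. Percent activity normalized to 20 uM Triacsin C.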
A general note: In qHTS, concentration-response curves come from the screen itself.

Where [1] appears, read: measured here: cell number channel AC50, cells fed with added oleic acid.
Where [2] appears, read: measured here: lipid fluorescence (Fed channel) AC50, cells fed with added oleic acid.

The other results are listed elsewhere or left out. The main result of the screen is listed elsewhere. These columns were measured beside it and carry no call. The list favours compounds with an active or inconclusive main result. Words in brackets tell the shape of the fitted curve; partial curves, single points and poor fits give uncertain potencies.

In general, AC50 refers to the midpoint of the concentration-response curve, whichever way the signal moves. Consider `COc1ccc(C)cc1Nc1n[n+](-c2ccccc2)c(-c2cc([N+](=O)[O-])cc(OC)c2O)s1`, for which the cell number change is 71.5%. Under setting [1], the AC50 is 25.9 µM [rising, partial curve]. In addition, the AC50 under setting [2] was 29.1 µM [falling, single point]. With `COCCNC(=O)Cn1c(=O)oc2cc(S(=O)(=O)N3CC(C)CC(C)C3)ccc21` (stereo unspecified), the cell number change came out at 27.4%. Consider `CC(=O)NCC(=O)OCc1ccc([N+](=O)[O-])cc1`, for which the cell number change is -5.22%. For the same compound, the half-maximal activity concentration (AC50) under setting [2] is 4.11 µM [falling, partial curve, poor fit].

Turning to `Cc1ccc(Oc2ccccc2NC(=O)C2=COCCO2)cc1`, the cell number change was -9.19%. For `COc1ccc(-c2nnc(SC)o2)c(OC)c1`, the cell number change is -18.1%. In addition, the AC50 under setting [2] is 1.16 µM [rising, single point]. Take `Cc1ccccc1Cn1nc(C)c(NC(=O)C2c3ccccc3Oc3ccccc32)c1C`: the cell number change was 12.7%. For the same compound, the AC50 under setting [2] was 2.59 µM [falling, partial curve]. With `N#CC1=C(N)Oc2ccc3ccccc3c2C1c1cccnc1` (stereo unspecified), the cell number change worked out at 10.8%. In the case of `CCOC(=O)c1c(CSc2ccc(C)cc2)oc2ccc(O)cc12`, the cell number change was -47%. In addition, the AC50 under setting [1] is 23.1 µM [falling, single point]. Further, the AC50 under setting [2] was 29.1 µM [falling, single point]. As for `CCCCc1ccc(CC(=O)Nc2cc(S(=O)(=O)N3CCOCC3)ccc2O)cc1`, under setting [2], the AC50 is 25.9 µM [falling, partial curve]. Turning to `CCOC(=O)C1CCCN(c2c(NCc3ccco3)c(=O)c2=O)C1` (stereo unspecified), the cell number change is -10.2%.

Take `CC(C)c1ccccc1OCC(O)CN(CC(O)COc1cccc2ccccc12)C(C)C` (stereo unspecified): the cell number change was 53.2%. Moreover, the AC50 under setting [1] is 29.1 µM [rising, single point]. In addition, the AC50 under setting [2] was 6.51 µM [falling, partial curve]. In the case of `CCOc1ccc(C(C)NC(=O)c2cccc(F)c2)cc1` (stereo unspecified), the cell number change was -50%. The concentration at half-maximal activity (AC50) under setting [1] was 3.66 µM [falling, partial curve]. As for `Cc1ccc(C2(CC(=O)Nc3nccs3)CCOC(C(C)C)C2)cc1` (stereo unspecified), the cell number change was found to be 8.9%. With `OCCNCc1cc(Br)ccc1OCc1ccccc1Cl`, the cell number change was -3.48%. Besides, the AC50 under setting [2] is 14.6 µM [falling, single point].

For the compound `CC(C)N(C1=CC(=O)OC12CCCCC2)C(C)C`, the cell number change worked out at 15.2%. In addition, the AC50 under setting [2] is 4.61 µM [rising, single point]. For `CC1Cc2ccccc2N1C(=O)CSc1nnc(-c2ccc(S(=O)(=O)N3CCCC3)cc2)n1C` (stereo unspecified), the cell number change is -15.7%. Also, the AC50 under setting [2] is 0.58 µM [falling, full curve, poor fit].

As for `COCCOC(=O)C1=C(C)NC(=O)NC1C1CC=CCC1` (stereo unspecified), the cell number change is -52.3%. Besides, under setting [1], the AC50 was 29.1 µM [falling, single point]. Moreover, the AC50 under setting [2] was 5.17 µM [falling, full curve]. With `COC(=O)C(NS(=O)(=O)c1ccc(N2CCCC2=O)cc1)c1ccccc1` (stereo unspecified), the cell number change is -0.88%. Moreover, the AC50 under setting [2] is 0.00517 µM [falling, full curve, poor fit]. As to `CC(C)n1c(CCCO)nc2ccccc21`, the cell number change was -0.52%. The AC50 under setting [2] was 0.92 µM [rising, full curve]. Take `CCOc1ccc(CC(=O)NC2CCN(Cc3ccccc3)CC2)cc1`: the cell number change is 22.6%. Regarding `O=C(C1CCCCN1S(=O)(=O)c1ccccc1[N+](=O)[O-])N1CCCCC1` (stereo unspecified), the AC50 under setting [2] is 0.13 µM [falling, full curve, poor fit]. Take `COc1ccc(OCc2cc(C(=O)NCc3nc(C)cs3)no2)c(Cl)c1`: the cell number change came out at 42.2%. Also, the AC50 under setting [1] was 1.3 µM [rising, full curve, poor fit]. Moreover, the AC50 under setting [2] is 4.61 µM [rising, full curve]. Take `COc1ccc(CNC(=O)c2c(O)c3cccc4c3n(c2=O)CCC4)cc1OC`: under setting [2], the AC50 was 0.58 µM [rising, single point]. In the case of `CC1=C(C(=O)OCc2ccccc2)C(c2ccccc2)NC(=O)N1CCCC(=O)O` (stereo unspecified), the cell number change came out at 10.8%.

Regarding `CC(NC(=O)C1CCC(CNc2c(N3CCOCC3)c(=O)c2=O)CC1)c1ccccc1` (stereo unspecified), the cell number change is -9.09%. Moreover, under setting [2], the AC50 was 2.06 µM [falling, partial curve]. Consider `O=C(NCc1ccco1)C(=S)N1CCCCC1`, for which the cell number change was found to be 33.3%. Take `O=C(CSc1nnc(-c2ccco2)c(-c2ccco2)n1)Nc1ccccc1`: the cell number change amounted to 3.83%. Further, the AC50 under setting [1] is 6.51 µM [falling, single point]. The concentration at half-maximal activity (AC50) under setting [2] was 0.517 µM [falling, partial curve, poor fit]. On to `CCCNS(=O)(=O)c1ccc(OCC(=O)N2CCc3ccccc3C2)c(C)c1`, for which the cell number change is -7.14%. Besides, under setting [2], the AC50 was 29.1 µM [falling, single point]. On to `COc1cc(OC)cc(C(=O)N2CCN(S(=O)(=O)c3ccc(Cl)s3)CC2)c1`, for which the cell number change worked out at 14.2%.

As for `O=c1[nH]c(=O)n(Cc2ccccc2)c2nc(-c3ccco3)cc(C(F)(F)F)c12`, the cell number change was -10.7%. The AC50 under setting [2] is 6.51 µM [rising, single point]. Consider `CC1(C)[C@@H](O)CC[C@]2(C)C3C(O)C=C4[C@H]5C[C@@](C)(C(=O)O)CC[C@]5(C)CC[C@]4(C)[C@]3(C)CC[C@@H]12` (stereo partly specified), for which the cell number change is -62.6%. In addition, under setting [1], the AC50 was 25.9 µM [falling, partial curve]. Besides, the AC50 under setting [2] was 18.4 µM [falling, partial curve, poor fit]. For `CCN(CC)S(=O)(=O)c1cc(NC(=O)CSc2nccn2C)ccc1C`, the cell number change is 21.3%. Further, the AC50 under setting [1] is 0.0291 µM [rising, full curve, poor fit]. Besides, the AC50 under setting [2] is 0.0146 µM [rising, full curve]. Take `COc1ccc(NC(=O)CN2C(=O)NC3(CCCCC3C)C2=O)cc1OC` (stereo unspecified): the cell number change is -0.429%. Moreover, the AC50 under setting [2] is 29.1 µM [rising, single point]. Consider `Oc1c(Br)cc(Br)cc1CNn1cnnc1`, for which the cell number change was found to be 13.5%. Besides, under setting [2], the AC50 is 20.6 µM [falling, single point]. As to `Cc1ccc(Oc2nn[nH]n2)cc1`, the cell number change was 10.2%. For the same compound, the AC50 under setting [2] is 16.4 µM [rising, partial curve, poor fit]. As for `Cn1c2ccsc2c2ncn(Cc3ccc(F)cc3)c(=O)c21`, the cell number change worked out at 5.75%. Also, the AC50 under setting [2] was 20.6 µM [rising, single point].

Regarding `Cc1ccc(Sc2c(C#N)c(-c3ccccc3)nn2C)cc1`, the cell number change was -19.4%. For the compound `O=S(=O)(Nc1cc(C(F)(F)F)ccc1N1CCOCC1)c1ccc2ccccc2c1`, the cell number change came out at 19.7%. Further, under setting [2], the AC50 is 9.2 µM [rising, partial curve].

On to `CN(Cc1cccs1)C(=O)COC(=O)CNC(N)=O`, for which the cell number change was -36.4%. The AC50 under setting [1] was 29.1 µM [falling, single point]. In addition, the AC50 under setting [2] is 1.03 µM [rising, full curve, poor fit].

Take `CCCCCCSc1ccc([C@H]2N[C@@](Cc3ccccc3)(C(=O)OC)[C@H]3C(=O)N(CC)C(=O)[C@@H]23)cc1`: the cell number change was -32.8%. Further, the AC50 under setting [1] was 23.1 µM [falling, single point]. For the same compound, the AC50 under setting [2] is 0.517 µM [falling, full curve]. Regarding `CC(Oc1ccccc1)C(=O)N1CCN(c2ccc(N3CCCCC3)nn2)CC1` (stereo unspecified), the cell number change was 13.2%. The AC50 under setting [2] is 0.82 µM [falling, partial curve, poor fit]. `COc1ccc(/C(N)=N/OC(=O)C2CCCCC2)cc1OC`: the AC50 under setting [2] was 1.84 µM [falling, partial curve]. For the compound `O=C(COC(=O)c1nc(Cl)ccc1Cl)NNC(=O)c1cccs1`, the cell number change was -17%. For the same compound, the AC50 under setting [1] is 1.16 µM [falling, full curve, poor fit].

For `Cc1cc(C)cc(N(CC(=O)Nc2ccccc2)C2=NC3CS(=O)(=O)CC3S2)c1` (stereo unspecified), the cell number change came out at 34.5%. Under setting [1], the AC50 was 5.8 µM [rising, partial curve, poor fit]. For `O=C(CSc1nnc2ncccn12)N1CCCCCC1`, the AC50 under setting [2] was 6.51 µM [falling, single point]. In the case of `Cc1ccc(C(=O)NCC(c2ccco2)N2CCc3ccccc3C2)cc1` (stereo unspecified), the cell number change was determined as 23.2%. In addition, the AC50 under setting [2] was 18.4 µM [rising, single point]. With `Cn1c(=O)c2c(nc(Cl)n2Cc2ccncc2)n(C)c1=O`, the cell number change is -16.4%. On to `Oc1cccc2ccc(/C=C/c3ccc(Br)s3)nc12`, for which the cell number change turned out to be 37.9%. Further, the AC50 under setting [1] was 16.4 µM [rising, single point]. The AC50 under setting [2] is 0.411 µM [falling, partial curve, poor fit]. On to `C=CCN1CC(=O)N2C(c3ccccc3)c3[nH]c4ccccc4c3C[C@H]2C1=O` (stereo partly specified), for which the cell number change came to 8.51%. The half-maximal activity concentration (AC50) under setting [2] was 29.1 µM [rising, single point].

As for `Cc1cccc(C)c1N(CC(=O)NCc1ccc(F)cc1)C(=O)c1csnn1`, the cell number change is -18.8%. Under setting [1], the AC50 is 0.00517 µM [falling, full curve, poor fit]. As for `Cc1ccc(-c2cn(-c3ccc(OC(F)F)cc3)c3[n+]2CCCCC3)cc1`, the cell number change was -28.8%. The AC50 under setting [2] was 20.6 µM [falling, single point].

For the compound `CCOC(=O)C1CCN(C(=O)COC(=O)c2cc(-c3cccs3)nn2-c2ccccc2)CC1`, the cell number change amounted to 47.3%. For the same compound, under setting [1], the AC50 is 4.11 µM [rising, partial curve, poor fit]. In addition, the AC50 under setting [2] was 6.51 µM [rising, single point].

Consider `C=CCOc1ccc(/C=C2/C(=O)ON=C2C)cc1OC`, for which the cell number change is -18.2%. Moreover, the AC50 under setting [2] is 29.1 µM [falling, single point]. For the compound `COc1ccc(N2CCN(C(=O)COc3ccc4c(C)cc(=O)oc4c3)CC2)cc1`, the cell number change was -21.1%. Besides, the AC50 under setting [1] is 2.59 µM [rising, partial curve]. For the same compound, the concentration at half-maximal activity (AC50) under setting [2] is 2.91 µM [rising, partial curve].

As to `Cc1csc2nc(CSc3nc4ccccc4o3)cn12`, the cell number change was -8.28%. The AC50 under setting [2] is 0.326 µM [rising, full curve, poor fit]. `CCOC(=O)N1CCN(C(=O)COC(=O)c2cccc(S(C)(=O)=O)c2)CC1`: the cell number change is -10%. In the case of `Cc1ccc(S(=O)(=O)N2CCOCC2)cc1C(=O)Nc1ccc(-c2cn3ccsc3n2)cc1`, the cell number change came to 24.4%. Further, the AC50 under setting [1] was 0.58 µM [rising, full curve]. In addition, the AC50 under setting [2] was 0.259 µM [rising, full curve, poor fit]. Regarding `O=C(CCN1CCCC1Cc1ccccc1)c1ccc2c(c1)OCCO2` (stereo unspecified), the cell number change is -44.9%. For the same compound, the AC50 under setting [1] is 16.4 µM [falling, partial curve]. In addition, under setting [2], the AC50 is 18.4 µM [falling, partial curve]. As for `Cc1cc(O)c(NC(=O)c2ccco2)cc1C`, the cell number change is -29.7%. The AC50 under setting [2] is 2.91 µM [rising, partial curve].
